Laboratory results taken from the M2OR odorant receptor database.
Residue numbers refer to the chain shown, from its start. This is a selection; strong and weak results do not stand in their true shares. Calls are pooled over several reports, among them a noisy single-well screen. The list shows a part of the results.

Chains of the proteins cited; added tags and fusions are not shown. Chains listed by the source or under a name are the forms on record and can include a tag or linker.
O4C46, as listed by the source: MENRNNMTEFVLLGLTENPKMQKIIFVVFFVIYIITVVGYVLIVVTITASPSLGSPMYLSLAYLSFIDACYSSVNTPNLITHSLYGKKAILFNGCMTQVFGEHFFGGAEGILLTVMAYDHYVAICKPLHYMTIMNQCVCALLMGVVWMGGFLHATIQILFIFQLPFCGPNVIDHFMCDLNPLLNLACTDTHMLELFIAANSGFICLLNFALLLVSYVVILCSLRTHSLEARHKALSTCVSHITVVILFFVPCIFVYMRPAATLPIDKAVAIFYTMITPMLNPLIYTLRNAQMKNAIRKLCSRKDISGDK
O4F17, as listed by the source: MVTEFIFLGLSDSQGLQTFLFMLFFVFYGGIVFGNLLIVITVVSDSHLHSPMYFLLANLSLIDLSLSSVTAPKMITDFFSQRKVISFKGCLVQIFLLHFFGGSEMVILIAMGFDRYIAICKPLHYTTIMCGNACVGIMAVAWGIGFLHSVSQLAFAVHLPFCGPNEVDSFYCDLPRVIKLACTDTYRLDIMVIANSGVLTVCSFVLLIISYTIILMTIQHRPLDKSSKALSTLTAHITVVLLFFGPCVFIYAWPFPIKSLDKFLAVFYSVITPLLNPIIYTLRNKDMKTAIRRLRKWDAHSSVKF
O4A15, as listed by the source: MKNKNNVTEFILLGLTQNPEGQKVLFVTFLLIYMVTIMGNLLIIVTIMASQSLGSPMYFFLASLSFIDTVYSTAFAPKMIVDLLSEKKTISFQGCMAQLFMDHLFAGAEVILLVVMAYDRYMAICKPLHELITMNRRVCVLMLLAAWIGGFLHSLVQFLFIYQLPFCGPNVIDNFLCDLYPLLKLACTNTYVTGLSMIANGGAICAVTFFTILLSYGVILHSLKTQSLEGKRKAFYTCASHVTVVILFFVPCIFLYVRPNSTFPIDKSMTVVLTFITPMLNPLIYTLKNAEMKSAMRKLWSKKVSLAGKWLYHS

Assays:
Details in all cases: stereoisomer not certain
[1] = system: T1, O2T11
T1 sequence (whole entry): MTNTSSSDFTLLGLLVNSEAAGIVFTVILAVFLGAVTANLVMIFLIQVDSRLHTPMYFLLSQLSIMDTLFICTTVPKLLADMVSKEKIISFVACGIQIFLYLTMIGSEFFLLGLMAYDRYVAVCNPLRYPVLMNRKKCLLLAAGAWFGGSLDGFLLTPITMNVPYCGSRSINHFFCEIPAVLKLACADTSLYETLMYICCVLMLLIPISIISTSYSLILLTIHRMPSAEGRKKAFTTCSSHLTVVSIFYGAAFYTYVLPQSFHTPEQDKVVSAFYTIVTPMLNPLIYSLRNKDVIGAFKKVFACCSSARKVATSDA
Outline: (§1)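 Each receptor–molecule pair is labelled responsive or non-responsive (inactive) according to whether the original authors judged the measured signal statistically different from baseline. The data were taken from the main text and supplementary material of published papers and checked for typos and inconsistencies. Assay methods differed by source, with transient luciferase assays in mammalian cell lines being common.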

[2] = system: T2, O2T29
T2 sequence (whole entry): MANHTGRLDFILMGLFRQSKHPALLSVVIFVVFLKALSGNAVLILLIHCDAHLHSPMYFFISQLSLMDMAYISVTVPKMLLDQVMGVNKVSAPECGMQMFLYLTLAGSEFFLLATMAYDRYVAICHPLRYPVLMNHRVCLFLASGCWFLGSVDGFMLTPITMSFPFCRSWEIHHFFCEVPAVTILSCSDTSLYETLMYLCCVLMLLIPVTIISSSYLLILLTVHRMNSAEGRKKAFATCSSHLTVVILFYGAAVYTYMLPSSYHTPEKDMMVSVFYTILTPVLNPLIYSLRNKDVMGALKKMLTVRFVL
Outline: as §1

[3] = system: T3, O2T29; remark: listed apart in the source
T3 sequence (whole entry): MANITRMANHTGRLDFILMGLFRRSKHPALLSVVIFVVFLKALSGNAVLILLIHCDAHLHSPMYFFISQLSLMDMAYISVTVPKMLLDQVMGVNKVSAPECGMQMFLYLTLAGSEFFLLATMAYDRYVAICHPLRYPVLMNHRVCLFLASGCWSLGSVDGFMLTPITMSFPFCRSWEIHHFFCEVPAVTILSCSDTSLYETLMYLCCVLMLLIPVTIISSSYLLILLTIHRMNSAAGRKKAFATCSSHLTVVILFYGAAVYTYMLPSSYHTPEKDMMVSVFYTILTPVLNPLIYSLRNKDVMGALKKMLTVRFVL
Outline: as §1

[4] = system: T4, O2T33
T4 sequence (whole entry): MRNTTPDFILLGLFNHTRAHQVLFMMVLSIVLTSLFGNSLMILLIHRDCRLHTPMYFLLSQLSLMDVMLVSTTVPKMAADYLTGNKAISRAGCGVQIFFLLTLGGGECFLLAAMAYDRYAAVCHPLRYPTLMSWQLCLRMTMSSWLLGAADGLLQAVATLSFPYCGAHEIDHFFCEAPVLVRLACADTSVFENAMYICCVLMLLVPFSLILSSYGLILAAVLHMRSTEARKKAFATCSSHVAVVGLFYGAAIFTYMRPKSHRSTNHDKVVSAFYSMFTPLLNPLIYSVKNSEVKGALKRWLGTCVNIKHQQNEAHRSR
Outline: as §1

[5] = system: T5, O2T34
T5 sequence (whole entry): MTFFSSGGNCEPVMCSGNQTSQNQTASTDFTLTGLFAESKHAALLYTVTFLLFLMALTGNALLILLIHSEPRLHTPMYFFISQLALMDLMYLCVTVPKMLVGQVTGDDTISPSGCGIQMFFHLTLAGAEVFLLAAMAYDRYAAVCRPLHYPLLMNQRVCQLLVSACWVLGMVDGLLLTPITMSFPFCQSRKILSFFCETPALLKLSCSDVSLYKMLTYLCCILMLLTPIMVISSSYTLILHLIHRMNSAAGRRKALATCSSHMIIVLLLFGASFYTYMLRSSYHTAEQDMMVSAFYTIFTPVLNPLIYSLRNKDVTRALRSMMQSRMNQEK
Outline: as §1

[6] = system: T6, O2T35
T6 sequence (whole entry): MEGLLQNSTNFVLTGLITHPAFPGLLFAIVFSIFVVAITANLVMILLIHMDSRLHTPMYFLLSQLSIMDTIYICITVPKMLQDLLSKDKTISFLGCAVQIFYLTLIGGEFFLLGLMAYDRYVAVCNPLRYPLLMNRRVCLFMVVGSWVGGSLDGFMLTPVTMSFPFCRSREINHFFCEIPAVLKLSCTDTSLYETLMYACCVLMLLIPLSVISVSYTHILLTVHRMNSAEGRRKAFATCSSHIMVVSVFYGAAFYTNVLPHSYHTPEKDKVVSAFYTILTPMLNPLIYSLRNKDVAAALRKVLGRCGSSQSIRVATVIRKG
Outline: as §1

[7] = system: O4A15
Outline: as §1

[8] = system: T7, O4A47
T7 sequence (whole entry): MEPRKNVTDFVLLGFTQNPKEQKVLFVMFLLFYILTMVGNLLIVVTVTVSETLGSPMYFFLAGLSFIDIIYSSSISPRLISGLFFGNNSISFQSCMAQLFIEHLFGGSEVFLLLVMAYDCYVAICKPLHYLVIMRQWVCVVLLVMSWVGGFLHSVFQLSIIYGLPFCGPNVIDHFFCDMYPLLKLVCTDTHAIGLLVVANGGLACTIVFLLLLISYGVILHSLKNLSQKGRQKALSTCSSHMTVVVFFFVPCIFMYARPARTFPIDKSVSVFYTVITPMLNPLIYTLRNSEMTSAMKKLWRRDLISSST
Outline: as §1

[9] = system: O4C46
Outline: as §1

[10] = system: T8, O4F17
T8 sequence (whole entry): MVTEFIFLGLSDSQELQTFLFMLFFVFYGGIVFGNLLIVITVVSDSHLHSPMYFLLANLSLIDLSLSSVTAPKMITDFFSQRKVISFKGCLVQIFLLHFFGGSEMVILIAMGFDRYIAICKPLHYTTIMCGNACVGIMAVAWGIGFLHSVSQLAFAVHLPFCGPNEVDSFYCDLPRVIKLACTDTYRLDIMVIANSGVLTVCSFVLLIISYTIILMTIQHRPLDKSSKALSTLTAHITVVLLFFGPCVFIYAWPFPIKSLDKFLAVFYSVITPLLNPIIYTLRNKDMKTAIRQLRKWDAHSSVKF
Outline: as §1

[11] = system: T9, O4F17; remark: listed apart in the source
T9 sequence (whole entry): T8 sequence (whole entry) with E15G, Q293R
Outline: as §1

[12] = system: T10, O4F21
T10 sequence (whole entry): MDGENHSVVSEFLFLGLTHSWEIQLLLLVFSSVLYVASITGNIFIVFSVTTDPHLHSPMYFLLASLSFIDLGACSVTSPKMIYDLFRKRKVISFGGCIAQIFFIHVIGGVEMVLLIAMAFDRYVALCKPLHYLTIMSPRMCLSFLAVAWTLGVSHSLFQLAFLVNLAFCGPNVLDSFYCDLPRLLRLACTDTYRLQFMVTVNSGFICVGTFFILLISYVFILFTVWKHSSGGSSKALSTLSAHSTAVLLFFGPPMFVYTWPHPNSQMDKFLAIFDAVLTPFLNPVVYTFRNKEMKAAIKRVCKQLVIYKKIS
Outline: as §1

[13] = system: T11, O51A4
T11 sequence (whole entry): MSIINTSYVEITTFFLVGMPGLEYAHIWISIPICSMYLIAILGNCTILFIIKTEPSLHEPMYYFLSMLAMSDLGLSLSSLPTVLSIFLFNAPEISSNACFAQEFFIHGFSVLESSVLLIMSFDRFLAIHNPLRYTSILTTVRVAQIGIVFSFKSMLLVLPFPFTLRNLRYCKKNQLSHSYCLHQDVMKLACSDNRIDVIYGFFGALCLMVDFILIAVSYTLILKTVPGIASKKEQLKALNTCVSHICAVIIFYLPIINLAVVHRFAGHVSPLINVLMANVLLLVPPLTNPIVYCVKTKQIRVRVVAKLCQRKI
Outline: as §1

[14] = system: T12, O51B4
T12 sequence (whole entry): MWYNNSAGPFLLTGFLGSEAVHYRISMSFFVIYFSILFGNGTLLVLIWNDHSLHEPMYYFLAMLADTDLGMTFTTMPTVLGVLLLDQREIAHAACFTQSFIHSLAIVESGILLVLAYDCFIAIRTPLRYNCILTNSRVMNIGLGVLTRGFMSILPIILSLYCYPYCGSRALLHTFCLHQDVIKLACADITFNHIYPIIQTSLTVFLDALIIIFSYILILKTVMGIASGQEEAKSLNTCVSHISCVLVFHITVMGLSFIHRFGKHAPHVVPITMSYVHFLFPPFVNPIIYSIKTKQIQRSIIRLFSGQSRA
Outline: as §1

[15] = system: T13, O51B5
T13 sequence (whole entry): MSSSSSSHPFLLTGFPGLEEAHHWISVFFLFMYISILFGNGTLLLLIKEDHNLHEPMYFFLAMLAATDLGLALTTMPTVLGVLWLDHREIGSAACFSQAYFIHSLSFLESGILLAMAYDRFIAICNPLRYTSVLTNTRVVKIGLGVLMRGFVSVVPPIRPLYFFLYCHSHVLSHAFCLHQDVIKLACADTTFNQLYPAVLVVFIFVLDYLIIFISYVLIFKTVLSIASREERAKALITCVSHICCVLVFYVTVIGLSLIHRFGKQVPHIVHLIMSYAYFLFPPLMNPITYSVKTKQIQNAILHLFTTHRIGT
Outline: as §1

[16] = system: T14, O51B6
T14 sequence (whole entry): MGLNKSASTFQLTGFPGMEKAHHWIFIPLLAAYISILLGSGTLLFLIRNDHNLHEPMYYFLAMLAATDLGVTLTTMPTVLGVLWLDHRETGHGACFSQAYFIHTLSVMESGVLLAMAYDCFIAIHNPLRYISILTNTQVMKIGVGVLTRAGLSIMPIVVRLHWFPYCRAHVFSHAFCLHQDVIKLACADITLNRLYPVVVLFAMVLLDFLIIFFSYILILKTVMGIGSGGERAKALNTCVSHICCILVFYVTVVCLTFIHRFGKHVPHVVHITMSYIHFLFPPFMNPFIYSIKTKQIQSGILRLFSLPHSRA
Outline: as §1

[17] = system: T15, O51E1
T15 sequence (whole entry): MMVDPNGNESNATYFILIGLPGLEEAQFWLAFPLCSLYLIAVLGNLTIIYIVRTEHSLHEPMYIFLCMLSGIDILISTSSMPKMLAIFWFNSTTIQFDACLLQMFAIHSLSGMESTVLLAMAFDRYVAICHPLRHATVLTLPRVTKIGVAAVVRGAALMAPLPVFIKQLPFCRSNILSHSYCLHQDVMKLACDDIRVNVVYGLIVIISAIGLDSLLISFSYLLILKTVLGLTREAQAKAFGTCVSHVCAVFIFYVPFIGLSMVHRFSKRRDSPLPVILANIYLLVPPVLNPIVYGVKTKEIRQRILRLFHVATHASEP
Outline: as §1

[18] = system: T16, O51F1
T16 sequence (whole entry): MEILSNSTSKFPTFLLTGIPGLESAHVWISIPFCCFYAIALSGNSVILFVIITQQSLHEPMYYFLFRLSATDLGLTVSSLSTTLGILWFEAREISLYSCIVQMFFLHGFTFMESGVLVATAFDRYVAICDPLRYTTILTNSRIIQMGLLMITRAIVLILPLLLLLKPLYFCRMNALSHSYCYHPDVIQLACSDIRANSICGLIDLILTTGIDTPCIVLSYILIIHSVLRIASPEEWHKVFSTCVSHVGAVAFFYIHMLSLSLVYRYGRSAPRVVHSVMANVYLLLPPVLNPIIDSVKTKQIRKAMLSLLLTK
Outline: as §1

[19] = system: T17, O51F2
T17 sequence (whole entry): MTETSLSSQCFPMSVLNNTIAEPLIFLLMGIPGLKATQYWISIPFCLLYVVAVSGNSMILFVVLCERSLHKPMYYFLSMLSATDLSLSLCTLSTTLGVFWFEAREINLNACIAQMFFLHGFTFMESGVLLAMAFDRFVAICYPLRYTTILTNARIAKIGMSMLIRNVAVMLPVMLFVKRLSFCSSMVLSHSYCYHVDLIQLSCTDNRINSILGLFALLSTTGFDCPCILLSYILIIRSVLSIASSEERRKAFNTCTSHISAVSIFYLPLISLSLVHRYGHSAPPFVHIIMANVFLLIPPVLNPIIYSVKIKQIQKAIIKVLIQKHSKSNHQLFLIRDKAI
Outline: as §1
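Further: active if original authors judged signal statistically different from baseline.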

Structure (SMILES) | odorant receptor agonist call [1] | odorant receptor agonist call [2] | odorant receptor agonist call [3] | odorant receptor agonist call [4] | odorant receptor agonist call [5] | odorant receptor agonist call [6] | odorant receptor agonist call [7] | odorant receptor agonist call [8] | odorant receptor agonist call [9] | odorant receptor agonist call [10] | odorant receptor agonist call [11] | odorant receptor agonist call [12] | odorant receptor agonist call [13] | odorant receptor agonist call [14] | odorant receptor agonist call [15] | odorant receptor agonist call [16] | odorant receptor agonist call [17] | odorant receptor agonist call [18] | odorant receptor agonist call [19]
CC(C)CCC(=O)O | inactive | inactive | inactive | inactive | inactive | inactive | inactive | inactive | inactive | inactive | active | inactive | inactive | inactive | inactive | active | inactive | inactive | inactive
CCCCCCCC=CC=O | inactive | inactive | active | inactive | active | inactive | inactive | inactive | inactive | inactive | active | inactive | inactive | inactive | inactive | active | active | inactive | inactive
CC(=O)OCC=C(C)CCC=C(C)C | inactive | inactive | inactive | active | inactive | active | inactive | inactive | inactive | inactive | active | active | inactive | active | inactive | inactive | active | inactive | inactive
CC12C=CCC1C1CCC3CC(=O)CCC3(C)C1CC2 (stereo unspecified) | inactive | inactive | inactive | inactive | inactive | inactive | active | inactive | inactive | active | inactive | inactive | active | inactive | inactive | active | inactive | inactive | inactive
